Consider 1 sequence from article PMC6853979, “Structures of GapR reveal a central channel which could accommodate B-DNA”.

Data set [1] has as its system GapR6KtoE (Caulobacter crescentus). The data set can be described thus: EMSA. The conditions noted are these: 0.425 uM tetramer, 1.7 uM DNA; EMSA: 10 mM Tris pH 7.5, 50 mM NaCl, 1 mM EDTA; 8% gel in 0.5x TBE pH 8.3 at 4 C; recombinant protein.
For data set [2], the target named is T1, GapR (Caulobacter crescentus) (UniProt Q9A385).
T1 sequence (looked up, limits assumed): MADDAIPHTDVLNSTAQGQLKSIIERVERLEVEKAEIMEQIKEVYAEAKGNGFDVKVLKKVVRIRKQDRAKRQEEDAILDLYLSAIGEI
The data set can be described thus: analytical SEC. The following applies: 6.25 uM tetramer, 20 uM DNA; recombinant protein.

The exact form of at least one protein or probe is not confirmed. For some assays here: No signal at the amounts used counts as a negative. For some assays here: At least one verdict rests on a figure or table, not on a statement of the authors. For some assays here: Protein sequences can lack the tags named with them.

Regarding “GTTAAGCAACCGTTAACGG (double strand) [19 bp oligonucleotide (19mer)]”, the binding result was “no binding” in data set [1] and “binds” in data set [2].
